This passage reports binding results from paper PMC4489807.

No constants are given. Whether binding was seen depends on the method and setting. In cells and extracts the contact can be indirect. Binding can be weak; no strength is given. Sequences can lack the tags named with a protein.

This experiment addresses T1, YFP-GAI (Arabidopsis thaliana) (UniProt Q9LQT8).
T1 sequence: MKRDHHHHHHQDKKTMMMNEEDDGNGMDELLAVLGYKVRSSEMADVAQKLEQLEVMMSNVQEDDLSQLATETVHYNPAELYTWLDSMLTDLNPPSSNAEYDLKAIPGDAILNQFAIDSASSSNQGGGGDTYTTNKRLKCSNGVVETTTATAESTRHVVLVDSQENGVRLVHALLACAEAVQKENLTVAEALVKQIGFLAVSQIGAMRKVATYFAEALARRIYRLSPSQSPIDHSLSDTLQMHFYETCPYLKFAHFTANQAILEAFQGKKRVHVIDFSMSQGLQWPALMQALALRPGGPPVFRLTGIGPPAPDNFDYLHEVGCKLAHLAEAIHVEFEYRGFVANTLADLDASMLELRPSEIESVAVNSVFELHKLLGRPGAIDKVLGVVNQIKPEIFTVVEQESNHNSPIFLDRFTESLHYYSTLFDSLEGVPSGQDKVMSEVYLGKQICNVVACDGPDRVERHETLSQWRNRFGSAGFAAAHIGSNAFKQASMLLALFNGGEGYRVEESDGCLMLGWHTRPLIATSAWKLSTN
Put plainly: co-IP; agroinfiltrated N. benthamiana leaves expressing HA-ARR1 or HA-ARR1ΔDDK and YFP-GAI; precipitated with anti-GFP, HA fusions detected.

Turning to “HA-ARR1ΔDDK (Arabidopsis thaliana) (domain or fragment)”, the binding entry is on record as “binds”.
